This is one part of the list. Small differences around the control level are noise.

Protein sequences, listed by entry. Tags and fused reporters are not part of them. Lines headed by an entry give the natural chain unless they say otherwise; changes in a name come on top.
UniProt P76938: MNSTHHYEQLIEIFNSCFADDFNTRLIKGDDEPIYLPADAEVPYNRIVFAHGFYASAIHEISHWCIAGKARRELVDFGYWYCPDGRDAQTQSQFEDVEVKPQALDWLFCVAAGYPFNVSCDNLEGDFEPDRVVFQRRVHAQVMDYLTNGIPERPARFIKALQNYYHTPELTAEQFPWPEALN
UniProt P76027: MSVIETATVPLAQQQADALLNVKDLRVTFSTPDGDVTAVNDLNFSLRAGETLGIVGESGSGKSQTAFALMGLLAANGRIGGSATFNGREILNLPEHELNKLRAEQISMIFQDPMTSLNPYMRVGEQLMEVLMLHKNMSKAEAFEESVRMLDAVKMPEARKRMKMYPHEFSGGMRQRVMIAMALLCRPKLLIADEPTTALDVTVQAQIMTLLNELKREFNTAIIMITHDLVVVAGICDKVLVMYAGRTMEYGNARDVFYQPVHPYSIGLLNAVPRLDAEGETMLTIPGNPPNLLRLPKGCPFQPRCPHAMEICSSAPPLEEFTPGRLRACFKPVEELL
UniProt P77318: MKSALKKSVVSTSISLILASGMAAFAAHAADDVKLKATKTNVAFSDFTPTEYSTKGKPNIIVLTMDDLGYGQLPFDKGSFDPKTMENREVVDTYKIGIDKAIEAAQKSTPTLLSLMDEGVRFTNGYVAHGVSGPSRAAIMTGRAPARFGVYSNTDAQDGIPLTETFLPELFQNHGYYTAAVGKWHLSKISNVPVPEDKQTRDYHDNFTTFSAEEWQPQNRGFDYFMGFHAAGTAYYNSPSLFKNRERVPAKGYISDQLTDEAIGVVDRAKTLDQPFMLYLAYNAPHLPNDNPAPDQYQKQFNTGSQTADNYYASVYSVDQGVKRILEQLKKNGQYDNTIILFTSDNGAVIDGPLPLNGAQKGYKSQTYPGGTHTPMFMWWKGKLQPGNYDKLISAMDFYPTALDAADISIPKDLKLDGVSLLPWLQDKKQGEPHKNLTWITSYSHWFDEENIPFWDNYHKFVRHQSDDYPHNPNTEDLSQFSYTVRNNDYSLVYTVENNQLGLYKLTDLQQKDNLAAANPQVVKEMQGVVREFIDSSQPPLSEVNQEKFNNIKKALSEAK
UniProt P76559: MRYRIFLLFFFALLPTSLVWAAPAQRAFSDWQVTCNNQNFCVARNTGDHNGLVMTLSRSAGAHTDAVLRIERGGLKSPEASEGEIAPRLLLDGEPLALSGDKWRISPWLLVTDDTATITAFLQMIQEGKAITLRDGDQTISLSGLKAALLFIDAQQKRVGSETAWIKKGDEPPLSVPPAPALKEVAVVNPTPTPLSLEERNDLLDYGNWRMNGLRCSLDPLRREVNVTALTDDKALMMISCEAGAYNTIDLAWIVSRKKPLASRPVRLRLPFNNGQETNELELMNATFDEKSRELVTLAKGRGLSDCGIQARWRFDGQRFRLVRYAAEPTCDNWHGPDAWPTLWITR
UniProt P76035: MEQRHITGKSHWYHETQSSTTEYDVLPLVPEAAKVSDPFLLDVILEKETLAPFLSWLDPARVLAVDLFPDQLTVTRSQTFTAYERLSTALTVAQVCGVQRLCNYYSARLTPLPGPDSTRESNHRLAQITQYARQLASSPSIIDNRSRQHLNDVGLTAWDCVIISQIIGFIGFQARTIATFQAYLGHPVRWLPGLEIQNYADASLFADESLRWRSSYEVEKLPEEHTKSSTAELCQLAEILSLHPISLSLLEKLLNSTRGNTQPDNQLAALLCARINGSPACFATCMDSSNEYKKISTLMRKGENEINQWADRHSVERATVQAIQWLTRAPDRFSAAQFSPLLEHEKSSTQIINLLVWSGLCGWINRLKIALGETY
UniProt P76545: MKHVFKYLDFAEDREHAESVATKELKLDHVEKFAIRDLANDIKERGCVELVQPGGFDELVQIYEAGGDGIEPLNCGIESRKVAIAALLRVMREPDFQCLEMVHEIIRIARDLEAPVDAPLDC
UniProt P76196: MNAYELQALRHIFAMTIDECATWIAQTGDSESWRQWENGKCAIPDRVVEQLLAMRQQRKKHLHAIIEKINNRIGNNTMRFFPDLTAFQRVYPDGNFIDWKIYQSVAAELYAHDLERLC
UniProt P76121: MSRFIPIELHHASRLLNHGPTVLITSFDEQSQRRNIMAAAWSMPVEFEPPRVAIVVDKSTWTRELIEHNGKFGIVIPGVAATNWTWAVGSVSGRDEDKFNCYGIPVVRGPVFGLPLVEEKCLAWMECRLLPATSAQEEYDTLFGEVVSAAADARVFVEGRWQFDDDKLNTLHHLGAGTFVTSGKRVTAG
UniProt P77306: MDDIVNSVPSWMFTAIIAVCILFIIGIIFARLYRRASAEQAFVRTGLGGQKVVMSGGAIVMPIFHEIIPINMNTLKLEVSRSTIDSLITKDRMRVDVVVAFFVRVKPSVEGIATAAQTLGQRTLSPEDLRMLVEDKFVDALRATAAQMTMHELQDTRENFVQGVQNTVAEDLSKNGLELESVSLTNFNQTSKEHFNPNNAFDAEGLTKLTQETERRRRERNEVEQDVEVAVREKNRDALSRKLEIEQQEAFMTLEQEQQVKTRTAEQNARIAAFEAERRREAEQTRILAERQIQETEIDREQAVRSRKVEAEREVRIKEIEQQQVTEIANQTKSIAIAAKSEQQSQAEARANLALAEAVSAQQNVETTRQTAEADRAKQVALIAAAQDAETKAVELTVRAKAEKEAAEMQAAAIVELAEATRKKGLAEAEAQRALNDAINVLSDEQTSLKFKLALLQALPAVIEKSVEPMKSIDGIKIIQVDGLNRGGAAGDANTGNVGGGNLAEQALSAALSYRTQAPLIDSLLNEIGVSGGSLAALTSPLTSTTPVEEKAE
UniProt P76342: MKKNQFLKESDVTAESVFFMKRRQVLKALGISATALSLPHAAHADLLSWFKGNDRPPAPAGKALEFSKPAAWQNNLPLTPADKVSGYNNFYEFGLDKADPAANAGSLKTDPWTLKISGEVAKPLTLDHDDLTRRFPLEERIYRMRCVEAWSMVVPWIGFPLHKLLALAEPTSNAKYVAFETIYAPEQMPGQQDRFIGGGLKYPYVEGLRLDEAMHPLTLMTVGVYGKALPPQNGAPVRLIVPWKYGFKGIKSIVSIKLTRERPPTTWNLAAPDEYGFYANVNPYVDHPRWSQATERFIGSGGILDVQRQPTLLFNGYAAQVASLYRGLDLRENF
UniProt P77379: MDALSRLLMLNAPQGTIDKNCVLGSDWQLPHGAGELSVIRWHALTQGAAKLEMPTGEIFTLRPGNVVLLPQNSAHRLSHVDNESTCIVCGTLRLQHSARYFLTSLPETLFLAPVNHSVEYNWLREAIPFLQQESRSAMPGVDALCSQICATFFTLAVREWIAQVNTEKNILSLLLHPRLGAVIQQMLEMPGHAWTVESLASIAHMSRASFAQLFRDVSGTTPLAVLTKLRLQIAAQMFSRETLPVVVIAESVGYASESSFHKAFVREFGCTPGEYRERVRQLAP
UniProt P77339: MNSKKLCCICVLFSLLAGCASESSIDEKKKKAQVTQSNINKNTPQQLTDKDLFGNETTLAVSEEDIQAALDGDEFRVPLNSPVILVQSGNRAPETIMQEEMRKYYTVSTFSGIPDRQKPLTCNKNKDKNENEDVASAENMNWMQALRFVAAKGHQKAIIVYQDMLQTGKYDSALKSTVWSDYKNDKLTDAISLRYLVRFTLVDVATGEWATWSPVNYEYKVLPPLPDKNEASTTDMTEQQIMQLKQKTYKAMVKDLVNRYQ
UniProt P75972: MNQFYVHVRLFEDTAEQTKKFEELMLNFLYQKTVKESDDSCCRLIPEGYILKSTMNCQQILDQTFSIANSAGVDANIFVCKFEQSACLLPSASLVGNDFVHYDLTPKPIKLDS
UniProt P77409: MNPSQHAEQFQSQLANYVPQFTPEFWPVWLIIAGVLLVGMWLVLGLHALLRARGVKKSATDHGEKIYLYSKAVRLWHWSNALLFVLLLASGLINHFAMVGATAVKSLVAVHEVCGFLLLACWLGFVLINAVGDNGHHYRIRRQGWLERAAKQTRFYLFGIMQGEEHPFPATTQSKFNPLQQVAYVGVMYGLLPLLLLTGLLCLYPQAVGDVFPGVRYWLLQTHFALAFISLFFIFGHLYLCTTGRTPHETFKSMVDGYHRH
UniProt P76575: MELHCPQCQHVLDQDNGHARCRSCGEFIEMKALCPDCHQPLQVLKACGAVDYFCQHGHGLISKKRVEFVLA
UniProt P76251: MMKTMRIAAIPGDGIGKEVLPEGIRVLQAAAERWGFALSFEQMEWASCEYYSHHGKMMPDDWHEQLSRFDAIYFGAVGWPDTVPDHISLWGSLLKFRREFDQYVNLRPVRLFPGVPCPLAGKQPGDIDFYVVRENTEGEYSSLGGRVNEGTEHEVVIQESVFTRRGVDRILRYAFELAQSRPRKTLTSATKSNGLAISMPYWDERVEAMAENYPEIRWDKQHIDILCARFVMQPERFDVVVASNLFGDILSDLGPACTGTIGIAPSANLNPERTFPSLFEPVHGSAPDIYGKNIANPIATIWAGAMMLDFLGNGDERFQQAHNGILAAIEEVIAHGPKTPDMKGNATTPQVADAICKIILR
UniProt P76102: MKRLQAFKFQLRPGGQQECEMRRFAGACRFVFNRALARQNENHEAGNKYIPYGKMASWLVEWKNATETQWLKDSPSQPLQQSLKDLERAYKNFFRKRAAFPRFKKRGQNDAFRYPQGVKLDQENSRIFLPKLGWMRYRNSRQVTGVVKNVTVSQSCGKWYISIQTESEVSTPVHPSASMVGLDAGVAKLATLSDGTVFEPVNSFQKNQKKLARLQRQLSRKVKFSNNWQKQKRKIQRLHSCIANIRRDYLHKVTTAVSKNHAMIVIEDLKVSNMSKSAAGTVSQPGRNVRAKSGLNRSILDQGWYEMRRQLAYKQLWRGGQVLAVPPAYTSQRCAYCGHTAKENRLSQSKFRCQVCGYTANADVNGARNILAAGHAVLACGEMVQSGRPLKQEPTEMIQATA
UniProt P76270: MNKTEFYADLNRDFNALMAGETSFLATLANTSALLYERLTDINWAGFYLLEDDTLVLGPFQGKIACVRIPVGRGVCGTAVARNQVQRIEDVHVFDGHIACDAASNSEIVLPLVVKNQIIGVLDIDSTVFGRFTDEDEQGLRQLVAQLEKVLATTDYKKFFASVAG
UniProt P76034: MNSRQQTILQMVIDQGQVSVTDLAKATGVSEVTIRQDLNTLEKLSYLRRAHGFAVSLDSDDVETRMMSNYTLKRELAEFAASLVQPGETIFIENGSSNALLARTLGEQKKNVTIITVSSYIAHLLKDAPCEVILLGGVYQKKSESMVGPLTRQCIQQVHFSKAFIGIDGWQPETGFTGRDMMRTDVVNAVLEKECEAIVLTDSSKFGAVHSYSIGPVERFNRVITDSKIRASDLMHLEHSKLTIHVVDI
UniProt P77390: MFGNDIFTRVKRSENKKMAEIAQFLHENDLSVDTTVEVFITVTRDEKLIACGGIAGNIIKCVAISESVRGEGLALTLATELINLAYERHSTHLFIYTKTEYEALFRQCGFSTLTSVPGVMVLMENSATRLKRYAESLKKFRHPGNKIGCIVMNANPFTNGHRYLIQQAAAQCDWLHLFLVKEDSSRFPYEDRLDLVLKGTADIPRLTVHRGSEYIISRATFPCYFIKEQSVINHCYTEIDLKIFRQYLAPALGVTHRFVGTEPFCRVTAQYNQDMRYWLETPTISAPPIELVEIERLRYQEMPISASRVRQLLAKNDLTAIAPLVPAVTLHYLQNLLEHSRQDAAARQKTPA
UniProt P77434: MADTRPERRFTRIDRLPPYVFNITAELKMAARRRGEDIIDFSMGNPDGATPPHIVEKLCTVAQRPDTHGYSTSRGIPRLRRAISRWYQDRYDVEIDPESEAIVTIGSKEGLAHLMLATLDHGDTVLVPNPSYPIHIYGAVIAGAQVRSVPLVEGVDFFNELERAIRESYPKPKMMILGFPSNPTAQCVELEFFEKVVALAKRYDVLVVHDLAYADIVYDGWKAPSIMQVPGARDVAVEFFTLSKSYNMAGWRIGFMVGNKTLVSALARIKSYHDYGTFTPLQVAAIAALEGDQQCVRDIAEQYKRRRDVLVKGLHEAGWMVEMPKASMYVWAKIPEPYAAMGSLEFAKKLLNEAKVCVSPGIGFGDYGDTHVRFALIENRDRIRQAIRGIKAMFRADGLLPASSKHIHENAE
UniProt P76403: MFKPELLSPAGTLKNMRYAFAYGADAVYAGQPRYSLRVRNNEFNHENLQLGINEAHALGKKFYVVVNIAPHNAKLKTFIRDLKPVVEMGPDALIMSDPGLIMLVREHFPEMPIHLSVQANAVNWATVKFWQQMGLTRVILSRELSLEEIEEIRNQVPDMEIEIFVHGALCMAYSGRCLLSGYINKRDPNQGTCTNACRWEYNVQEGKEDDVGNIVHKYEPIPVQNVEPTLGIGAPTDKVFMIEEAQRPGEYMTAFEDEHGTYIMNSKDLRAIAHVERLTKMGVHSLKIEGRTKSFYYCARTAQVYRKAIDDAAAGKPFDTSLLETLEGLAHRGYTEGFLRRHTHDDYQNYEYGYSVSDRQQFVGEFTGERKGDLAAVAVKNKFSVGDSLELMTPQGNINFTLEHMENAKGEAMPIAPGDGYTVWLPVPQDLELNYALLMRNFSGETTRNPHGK

Compound in the experiment: CC1(C)S[C@@H]2[C@H](NC(=O)[C@H](N)c3ccccc3)C(=O)N2[C@H]1C(=O)O [ampicillin]
Briefly: log2 fold change of tryptic peptide abundance, ligand vs vehicle (limited proteolysis) (log2 ratio); higher = more trypsin-susceptible (destabilized). As to conditions: ligand concentration: 10 uM; sample: E. coli crude lysate.
Take “UniProt P76938 (peptide sequence: VHAQVMDYLTNGIPERPAR, peptide start residue: 138)”: the log2 fold change is -0.115.

As to “UniProt P76027 (peptide sequence: VGEQLMEVLMLHK, peptide start residue: 123)”, the log2 fold change is 0.095.

Consider “UniProt P77318 (peptide sequence: EFIDSSQPPLSEVNQEKFNNIKK, peptide start residue: 532)”, for which the log2 fold change amounted to 0.334.

Take “UniProt P76559 (peptide sequence: VGSETAWIK, peptide start residue: 159)”: the log2 fold change was -0.142.

On to “UniProt P75954 (peptide sequence: SGMPVDVR, peptide start residue: 304)”, for which the log2 fold change is -0.188.

On to “UniProt P76035 (peptide sequence: FSAAQFSPLLEHEK, peptide start residue: 333)”, for which the log2 fold change was found to be 0.502.

Regarding “UniProt P76545 (peptide sequence: YLDFAEDREHAESVATK, peptide start residue: 7)”, the log2 fold change is -0.423.

In the case of “UniProt P76196 (peptide sequence: IYQSVAAELYAHDLER, peptide start residue: 101)”, the log2 fold change was -0.602.

For “UniProt P76121 (peptide sequence: CLAWMECR, peptide start residue: 121)”, the log2 fold change came out at 0.0201.

On to “UniProt P77306 (peptide sequence: SIAIAAK, peptide start residue: 334)”, for which the log2 fold change is -0.591.

In the case of “UniProt P77625 (peptide sequence: SEADIAAEFTR, peptide start residue: 60)”, the log2 fold change was found to be 0.148.

“UniProt P76342 (peptide sequence: GNDRPPAPAGK, peptide start residue: 52)”: the log2 fold change stood at 0.0383.

In the case of “UniProt P77379 (peptide sequence: WHALTQGAAK, peptide start residue: 41)”, the log2 fold change was 0.0995.

On to “UniProt P77339 (peptide sequence: AQVTQSNINK, peptide start residue: 32)”, for which the log2 fold change turned out to be 0.193.

Take “UniProt P75972 (peptide sequence: LFEDTAEQTKK, peptide start residue: 10)”: the log2 fold change was -0.648.

For the target “UniProt P77409 (peptide sequence: SMVDGYHRH, peptide start residue: 253)”, the log2 fold change came to 0.157.

As to “UniProt P76129 (peptide sequence: VADISQHMAALALEQEK, peptide start residue: 351)”, the log2 fold change came to 0.188.

For “UniProt P76575 (peptide sequence: KRVEFVLA, peptide start residue: 64)”, the log2 fold change was -0.137.

“UniProt P76251 (peptide sequence: EFDQYVNLRPVR, peptide start residue: 99)”: the log2 fold change was -0.105.

Consider “UniProt P76102 (peptide sequence: FQLRPGGQQECEMR, peptide start residue: 9)”, for which the log2 fold change came out at 0.31.

With “UniProt P76270 (peptide sequence: TEFYADLNR, peptide start residue: 4)”, the log2 fold change was determined as 0.13.

“UniProt P76034 (peptide sequence: IRASDLMHLEHSK, peptide start residue: 229)”: the log2 fold change was determined as 0.728.

Consider “UniProt P77390 (peptide sequence: VKRSENK, peptide start residue: 10)”, for which the log2 fold change was -0.428.

On to “UniProt P77434 (peptide sequence: DIAEQYKR, peptide start residue: 298)”, for which the log2 fold change was determined as 0.284.

“UniProt P76403 (peptide sequence: KFYVVVNIAPHNAK, peptide start residue: 61)”: the log2 fold change is 0.246.

Values taken from the supplement of paper PMC12819154, “High-throughput peptide-centric local stability assay extends protein–ligand identification to membrane proteins, tissues and bacteria” (Nature Structural & Molecular Biology, 2025).
